This note sets out measurements from article PMC4976976.

Sequences of proteins named here, by UniProt entry; tags and fusion partners are left off.
UniProt P17480: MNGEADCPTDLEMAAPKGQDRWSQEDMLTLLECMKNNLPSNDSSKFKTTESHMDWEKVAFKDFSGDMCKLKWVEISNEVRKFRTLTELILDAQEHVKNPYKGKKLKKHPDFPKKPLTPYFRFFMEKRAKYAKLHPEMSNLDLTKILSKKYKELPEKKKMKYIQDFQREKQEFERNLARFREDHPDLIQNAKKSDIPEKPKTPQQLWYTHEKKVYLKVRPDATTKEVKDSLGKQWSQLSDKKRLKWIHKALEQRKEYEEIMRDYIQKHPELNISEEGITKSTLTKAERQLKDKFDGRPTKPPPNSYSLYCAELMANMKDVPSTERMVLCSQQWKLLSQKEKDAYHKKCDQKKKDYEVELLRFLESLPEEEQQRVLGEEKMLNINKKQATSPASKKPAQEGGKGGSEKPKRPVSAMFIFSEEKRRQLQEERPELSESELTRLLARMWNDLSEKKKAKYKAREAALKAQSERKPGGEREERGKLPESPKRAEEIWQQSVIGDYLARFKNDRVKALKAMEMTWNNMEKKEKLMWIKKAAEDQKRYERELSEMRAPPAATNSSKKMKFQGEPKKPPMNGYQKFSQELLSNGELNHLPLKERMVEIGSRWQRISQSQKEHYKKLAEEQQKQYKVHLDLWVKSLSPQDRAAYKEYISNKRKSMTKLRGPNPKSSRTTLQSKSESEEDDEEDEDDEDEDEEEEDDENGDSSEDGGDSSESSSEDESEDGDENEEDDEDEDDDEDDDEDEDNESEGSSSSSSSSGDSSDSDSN
UniProt Q9NRC8: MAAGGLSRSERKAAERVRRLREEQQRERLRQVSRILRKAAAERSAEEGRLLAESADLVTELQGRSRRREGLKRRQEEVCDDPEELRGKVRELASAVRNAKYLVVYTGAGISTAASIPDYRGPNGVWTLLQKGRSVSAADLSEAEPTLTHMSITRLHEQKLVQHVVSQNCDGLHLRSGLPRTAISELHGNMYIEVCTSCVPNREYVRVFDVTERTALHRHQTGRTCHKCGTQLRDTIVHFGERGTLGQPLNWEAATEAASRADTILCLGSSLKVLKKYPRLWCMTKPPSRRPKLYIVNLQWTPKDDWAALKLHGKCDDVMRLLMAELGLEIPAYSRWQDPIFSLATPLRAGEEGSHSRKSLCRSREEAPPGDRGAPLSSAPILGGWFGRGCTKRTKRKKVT

No constants are given. Whether binding was seen depends on the method and setting. Binding seen in cells or lysates may run through a third protein. Some binding calls cover weakened binding; strength is not graded here.

For experiment [1], the target named is Upstream binding factor (UBF) (human (endogenous in MCF7)) (UniProt P17480). The experiment is described as follows: condition: only in MCF7 cells stably expressing Wnt5a; co-IP; nuclear extracts of MCF7 cells stably expressing Wnt5a (MCF7/Wnt5a); precipitated with antibodies against UBF, Protein G Sepharose; beads washed with 1X PBS, 1 mM PMSF, 0.2% NP-40; immunoblots. Background: A western blot detects proteins with antibodies after separation by electrophoresis.

Experiment [2] has the same target. The experiment is described as follows: co-IP; nuclear extracts of MCF7 cells (MCF7/Ctrl) or MCF7 cells stably expressing Wnt5a (MCF7/Wnt5a); precipitated with antibodies against UBF or the autoimmune serum S57299 against Pol I, Protein G Sepharose; beads washed with 1X PBS, 1 mM PMSF, 0.2% NP-40; immunoblots.

With “Sirtuin 7 (SIRT7) (from UniProt Q9NRC8 1-400) (enzyme)”, the binding result is on record as “no binding” in experiment [1] and “binds” in experiment [2].

B1: Dishevelled1 (DVL1) (protein, UniProt O14640 1-695)
chain: MAETKIIYHMDEEETPYLVKLPVAPERVTLADFKNVLSNRPVHAYKFFFKSMDQDFGVVKEEIFDDNAKLPCFNGRVVSWLVLAEGAHSDAGSQGTDSHTDLPPPLERTGGIGDSRPPSFHPNVASSRDGMDNETGTESMVSHRRERARRRNREEAARTNGHPRGDRRRDVGLPPDSASTALSSELESSSFVDSDEDGSTSRLSSSTEQSTSSRLIRKHKRRRRKQRLRQADRASSFSSITDSTMSLNIVTVTLNMERHHFLGISIVGQSNDRGDGGIYIGSIMKGGAVAADGRIEPGDMLLQVNDVNFENMSNDDAVRVLREIVSQTGPISLTVAKCWDPTPRSYFTVPRADPVRPIDPAAWLSHTAALTGALPRYGTSPCSSAVTRTSSSSLTSSVPGAPQLEEAPLTVKSDMSAVVRVMQLPDSGLEIRDRMWLKITIANAVIGADVVDWLYTHVEGFKERREARKYASSLLKHGFLRHTVNKITFSEQCYYVFGDLCSNLATLNLNSGSSGTSDQDTLAPLPHPAAPWPLGQGYPYQYPGPPPCFPPAYQDPGFSYGSGSTGSQQSEGSKSSGSTRSSRRAPGREKERRAAGAGGSGSESDHTAPSGVGSSWRERPAGQLSRGSSPRSQASATAPGLPPPHPTTKAYTVVGGPPGGPPVRELAAVPPELTGSRQSFQKAMGNPCEFFVDIM
With B1, the binding entry in experiment [2] is recorded as “binds”.
